According to PubChem BioAssay AID504539 (Broad Institute, 2011):
Inconclusive means that the source gave no clear call. Such entries were picked first, then a sample of the others. Calls of active or inactive are those of the source. No rule for the calls is given here. Where a SMILES comes first, the peptide text is derived from it. [ ]: non-standard residue; d: D form. The star is where a group is joined. ξ: configuration not given here. ξNMe2Val = CC(C)C(C(=O)*)N(C)C; NMeV = CN[CH](C(=O)O)C(C)C; NHBn = c1ccc(CN*)cc1

Experiment: prion protein 5' UTR mRNA inhibitors – cell-based, plate reader, cherry-picked samples, dose response (AID 504539)
Conditions: Cell-based prion protein 5' UTR reporter; at 5 µM (top of the series)

Compound	activity change, negative = inhibition
Cc1ccc(S(=O)(=O)Nc2nc3ccccc3s2)cc1[N+](=O)[O-]	inactive: 25.2%
O=C(NNC(=O)c1cccs1)c1ccco1	inactive: 6.33%
CCC1(O)C(=O)OCc2c1cc1n(c2=O)Cc2cc3c(N)cccc3nc2-1 (stereo unspecified)	inconclusive: -92.3%
N#Cc1cn(C2OC(CO)C(O)C2O)c2ncnc(N)c12 (stereo unspecified)	inactive: -30.1%
COc1ccc([C@@]23Oc4cc(OC)cc(OC)c4[C@]2(O)[C@H](O)[C@H](C(=O)N(C)C)[C@H]3c2ccccc2)cc1	inconclusive: -58%
COc1cc2cc(c1Cl)N(C)C(=O)CC(OC(=O)C(C)N(C)C(C)=O)C1(C)OC1C(C)C1CC(O)(NC(=O)O1)C(OC)C=CC=C(C)C2 (stereo unspecified)	inconclusive: -65.2%
CC(C)C(NC(=O)C(C(C)C)N(C)C)C(=O)N(C)C(C(=O)N1CCCC1C(=O)N1CCCC1C(=O)NCc1ccccc1)C(C)C (stereo unspecified) (ξNMe2Val-V[NMeV]PP-NHBn; configuration not given here)	inconclusive: -27.4%
COc1ccc(Nc2nc(-c3c(C)nc4ncccn34)cs2)cc1	inactive: -31.6%
CCOC(=O)NC1CCc2cc(OC)c(OC)c(OC)c2-c2ccc(SC)c(=O)cc21 (stereo unspecified)	inconclusive: -52.7%
COc1ccc(OC)c(-c2nnc3n2N=C(c2ccc(OC)c(OCC4CC4)c2)CS3)c1	inconclusive: -24.6%
COc1cc([C@@H]2c3cc4c(cc3[C@H](O)[C@H]3COC(=O)[C@H]23)OCO4)cc(OC)c1OC	inconclusive: -57.4%
COc1ccc2c(c1)/C(=C/c1cc(OC)c(OC)c(OC)c1)C(=O)N2	inconclusive: 32.1%
CCOc1ccc(C2=Nn3c(nnc3-c3ccccc3OC)SC2)cc1	inactive: -38.1%
CCOCCOC(=O)c1[nH]c2c(c1C)C(=O)CC(c1ccccc1)C2 (stereo unspecified)	inconclusive: -29.3%
COc1ccc(NC(=O)C(=O)NCC(c2ccco2)N2CCc3ccccc32)cc1 (stereo unspecified)	inconclusive: 46.7%
Cc1ccc(Nc2nc(-c3c(C)nc4ccccn34)cs2)cc1	inconclusive: -57.8%

Some of the entries so far, in CSV form:
Compound,"activity change, negative = inhibition"
O=C(NNC(=O)c1cccs1)c1ccco1,inactive: 6.33%
CC(C)C(NC(=O)C(C(C)C)N(C)C)C(=O)N(C)C(C(=O)N1CCCC1C(=O)N1CCCC1C(=O)NCc1ccccc1)C(C)C (stereo unspecified) (ξNMe2Val-V[NMeV]PP-NHBn; configuration not given here),inconclusive: -27.4%
CCOC(=O)NC1CCc2cc(OC)c(OC)c(OC)c2-c2ccc(SC)c(=O)cc21 (stereo unspecified),inconclusive: -52.7%
CCOc1ccc(C2=Nn3c(nnc3-c3ccccc3OC)SC2)cc1,inactive: -38.1%
